Reference: the supplement of paper PMC10849652
The list shows a part of the results.

Amino acid sequences for entries named in this document (tags omitted). A change or cut given only in a name is not applied to a line headed by its entry.
UniProt Q9HC16: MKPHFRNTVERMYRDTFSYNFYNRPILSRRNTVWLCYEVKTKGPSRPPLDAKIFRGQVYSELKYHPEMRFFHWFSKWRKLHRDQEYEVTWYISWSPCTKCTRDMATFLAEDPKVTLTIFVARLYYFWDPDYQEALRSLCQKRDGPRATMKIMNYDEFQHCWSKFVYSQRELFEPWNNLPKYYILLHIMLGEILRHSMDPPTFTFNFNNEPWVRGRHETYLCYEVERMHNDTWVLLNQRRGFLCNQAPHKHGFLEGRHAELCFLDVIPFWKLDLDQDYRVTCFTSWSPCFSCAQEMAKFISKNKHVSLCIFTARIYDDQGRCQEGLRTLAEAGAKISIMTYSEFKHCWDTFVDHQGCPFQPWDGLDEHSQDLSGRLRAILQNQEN
UniProt Q9NRY4: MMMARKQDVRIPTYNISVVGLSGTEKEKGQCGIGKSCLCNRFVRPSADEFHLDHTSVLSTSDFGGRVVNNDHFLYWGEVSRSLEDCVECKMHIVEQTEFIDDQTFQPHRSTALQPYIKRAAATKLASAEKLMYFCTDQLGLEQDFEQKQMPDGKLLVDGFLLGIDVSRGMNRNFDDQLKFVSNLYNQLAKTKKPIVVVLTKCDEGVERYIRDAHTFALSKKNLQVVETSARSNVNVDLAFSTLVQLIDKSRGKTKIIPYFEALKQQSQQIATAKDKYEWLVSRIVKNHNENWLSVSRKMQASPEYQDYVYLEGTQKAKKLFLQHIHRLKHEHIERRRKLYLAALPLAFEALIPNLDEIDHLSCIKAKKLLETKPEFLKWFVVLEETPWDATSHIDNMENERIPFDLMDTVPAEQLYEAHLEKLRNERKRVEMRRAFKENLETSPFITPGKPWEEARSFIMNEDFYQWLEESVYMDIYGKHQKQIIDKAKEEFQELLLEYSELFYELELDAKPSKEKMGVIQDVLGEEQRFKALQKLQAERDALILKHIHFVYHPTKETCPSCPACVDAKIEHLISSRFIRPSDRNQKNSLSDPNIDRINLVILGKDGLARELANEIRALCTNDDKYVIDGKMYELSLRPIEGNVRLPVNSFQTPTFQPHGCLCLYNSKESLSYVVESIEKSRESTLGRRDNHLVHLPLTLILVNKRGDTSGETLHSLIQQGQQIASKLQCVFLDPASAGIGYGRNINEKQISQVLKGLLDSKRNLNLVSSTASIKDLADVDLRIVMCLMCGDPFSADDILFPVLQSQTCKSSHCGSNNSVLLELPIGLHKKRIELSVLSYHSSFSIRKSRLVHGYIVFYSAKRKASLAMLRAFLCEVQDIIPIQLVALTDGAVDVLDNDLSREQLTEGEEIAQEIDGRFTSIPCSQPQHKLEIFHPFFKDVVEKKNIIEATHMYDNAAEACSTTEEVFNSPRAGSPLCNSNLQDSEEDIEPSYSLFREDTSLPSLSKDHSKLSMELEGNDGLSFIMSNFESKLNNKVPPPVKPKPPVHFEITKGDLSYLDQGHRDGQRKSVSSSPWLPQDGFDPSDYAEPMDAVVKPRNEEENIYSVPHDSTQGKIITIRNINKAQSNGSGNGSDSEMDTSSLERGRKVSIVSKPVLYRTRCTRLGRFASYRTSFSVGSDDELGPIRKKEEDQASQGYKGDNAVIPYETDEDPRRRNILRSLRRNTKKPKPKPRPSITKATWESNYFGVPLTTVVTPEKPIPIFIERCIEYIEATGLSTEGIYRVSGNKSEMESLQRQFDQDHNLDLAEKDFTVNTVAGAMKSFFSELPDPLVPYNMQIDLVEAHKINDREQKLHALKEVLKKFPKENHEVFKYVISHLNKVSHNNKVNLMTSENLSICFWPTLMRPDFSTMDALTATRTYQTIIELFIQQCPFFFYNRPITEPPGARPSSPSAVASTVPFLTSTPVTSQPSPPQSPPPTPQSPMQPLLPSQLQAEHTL
UniProt Q0VD83: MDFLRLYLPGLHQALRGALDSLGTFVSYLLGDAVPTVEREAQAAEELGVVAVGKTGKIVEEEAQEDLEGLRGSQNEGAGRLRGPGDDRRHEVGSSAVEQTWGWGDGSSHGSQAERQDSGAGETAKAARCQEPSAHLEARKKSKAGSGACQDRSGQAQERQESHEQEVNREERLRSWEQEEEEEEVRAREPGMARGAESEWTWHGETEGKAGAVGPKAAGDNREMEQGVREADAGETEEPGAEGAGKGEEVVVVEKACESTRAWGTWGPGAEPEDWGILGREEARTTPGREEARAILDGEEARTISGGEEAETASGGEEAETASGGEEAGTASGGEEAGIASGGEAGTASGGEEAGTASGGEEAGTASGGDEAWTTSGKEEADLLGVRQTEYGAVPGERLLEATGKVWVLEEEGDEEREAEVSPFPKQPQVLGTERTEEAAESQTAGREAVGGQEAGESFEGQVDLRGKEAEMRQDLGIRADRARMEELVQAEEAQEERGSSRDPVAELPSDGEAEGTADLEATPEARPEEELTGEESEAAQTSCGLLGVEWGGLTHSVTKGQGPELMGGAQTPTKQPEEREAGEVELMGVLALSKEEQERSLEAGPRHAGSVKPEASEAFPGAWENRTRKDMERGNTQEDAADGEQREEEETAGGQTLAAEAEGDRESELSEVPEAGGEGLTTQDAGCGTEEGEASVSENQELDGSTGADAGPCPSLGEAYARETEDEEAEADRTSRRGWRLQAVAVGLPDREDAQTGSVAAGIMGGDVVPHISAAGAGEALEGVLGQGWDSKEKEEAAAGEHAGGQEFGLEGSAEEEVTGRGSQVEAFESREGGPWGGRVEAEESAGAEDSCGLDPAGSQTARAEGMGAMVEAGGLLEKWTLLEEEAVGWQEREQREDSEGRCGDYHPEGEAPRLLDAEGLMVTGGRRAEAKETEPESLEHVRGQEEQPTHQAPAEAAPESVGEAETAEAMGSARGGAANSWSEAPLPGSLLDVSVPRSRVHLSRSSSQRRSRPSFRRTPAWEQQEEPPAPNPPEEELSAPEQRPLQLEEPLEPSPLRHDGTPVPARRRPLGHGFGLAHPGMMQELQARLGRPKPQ
UniProt O15013: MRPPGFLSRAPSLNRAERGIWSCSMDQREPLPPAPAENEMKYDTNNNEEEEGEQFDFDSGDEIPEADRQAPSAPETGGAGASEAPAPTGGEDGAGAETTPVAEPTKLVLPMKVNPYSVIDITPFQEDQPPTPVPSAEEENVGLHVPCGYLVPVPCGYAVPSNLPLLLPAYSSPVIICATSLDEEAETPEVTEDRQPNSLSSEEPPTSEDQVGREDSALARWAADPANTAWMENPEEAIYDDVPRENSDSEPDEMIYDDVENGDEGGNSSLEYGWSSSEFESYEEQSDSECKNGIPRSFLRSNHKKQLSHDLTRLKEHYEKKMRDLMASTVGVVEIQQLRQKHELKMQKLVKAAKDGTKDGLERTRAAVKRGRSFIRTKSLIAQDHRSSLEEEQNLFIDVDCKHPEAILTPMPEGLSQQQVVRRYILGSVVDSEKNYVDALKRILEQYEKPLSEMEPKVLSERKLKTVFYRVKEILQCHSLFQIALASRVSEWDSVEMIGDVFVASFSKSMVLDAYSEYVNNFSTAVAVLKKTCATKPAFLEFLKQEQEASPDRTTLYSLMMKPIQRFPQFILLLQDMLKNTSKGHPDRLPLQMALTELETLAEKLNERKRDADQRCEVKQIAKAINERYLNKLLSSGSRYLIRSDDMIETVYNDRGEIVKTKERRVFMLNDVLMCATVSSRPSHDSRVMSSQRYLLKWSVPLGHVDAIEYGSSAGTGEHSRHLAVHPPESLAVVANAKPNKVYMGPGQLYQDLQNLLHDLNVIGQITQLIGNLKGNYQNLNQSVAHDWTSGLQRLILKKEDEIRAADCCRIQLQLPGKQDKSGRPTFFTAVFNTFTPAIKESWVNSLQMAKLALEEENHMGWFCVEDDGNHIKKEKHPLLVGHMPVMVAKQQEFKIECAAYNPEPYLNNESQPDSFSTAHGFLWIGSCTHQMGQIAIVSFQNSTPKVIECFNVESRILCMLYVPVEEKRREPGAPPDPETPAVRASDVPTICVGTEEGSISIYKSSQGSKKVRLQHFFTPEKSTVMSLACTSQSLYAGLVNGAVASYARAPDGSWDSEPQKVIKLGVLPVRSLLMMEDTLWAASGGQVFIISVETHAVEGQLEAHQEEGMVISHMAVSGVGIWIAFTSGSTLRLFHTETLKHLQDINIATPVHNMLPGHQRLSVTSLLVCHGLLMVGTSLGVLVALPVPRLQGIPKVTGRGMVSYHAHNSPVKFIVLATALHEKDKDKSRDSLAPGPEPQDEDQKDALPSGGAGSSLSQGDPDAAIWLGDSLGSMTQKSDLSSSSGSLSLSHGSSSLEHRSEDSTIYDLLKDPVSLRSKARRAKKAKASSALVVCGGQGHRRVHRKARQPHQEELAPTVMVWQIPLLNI
UniProt Q92974: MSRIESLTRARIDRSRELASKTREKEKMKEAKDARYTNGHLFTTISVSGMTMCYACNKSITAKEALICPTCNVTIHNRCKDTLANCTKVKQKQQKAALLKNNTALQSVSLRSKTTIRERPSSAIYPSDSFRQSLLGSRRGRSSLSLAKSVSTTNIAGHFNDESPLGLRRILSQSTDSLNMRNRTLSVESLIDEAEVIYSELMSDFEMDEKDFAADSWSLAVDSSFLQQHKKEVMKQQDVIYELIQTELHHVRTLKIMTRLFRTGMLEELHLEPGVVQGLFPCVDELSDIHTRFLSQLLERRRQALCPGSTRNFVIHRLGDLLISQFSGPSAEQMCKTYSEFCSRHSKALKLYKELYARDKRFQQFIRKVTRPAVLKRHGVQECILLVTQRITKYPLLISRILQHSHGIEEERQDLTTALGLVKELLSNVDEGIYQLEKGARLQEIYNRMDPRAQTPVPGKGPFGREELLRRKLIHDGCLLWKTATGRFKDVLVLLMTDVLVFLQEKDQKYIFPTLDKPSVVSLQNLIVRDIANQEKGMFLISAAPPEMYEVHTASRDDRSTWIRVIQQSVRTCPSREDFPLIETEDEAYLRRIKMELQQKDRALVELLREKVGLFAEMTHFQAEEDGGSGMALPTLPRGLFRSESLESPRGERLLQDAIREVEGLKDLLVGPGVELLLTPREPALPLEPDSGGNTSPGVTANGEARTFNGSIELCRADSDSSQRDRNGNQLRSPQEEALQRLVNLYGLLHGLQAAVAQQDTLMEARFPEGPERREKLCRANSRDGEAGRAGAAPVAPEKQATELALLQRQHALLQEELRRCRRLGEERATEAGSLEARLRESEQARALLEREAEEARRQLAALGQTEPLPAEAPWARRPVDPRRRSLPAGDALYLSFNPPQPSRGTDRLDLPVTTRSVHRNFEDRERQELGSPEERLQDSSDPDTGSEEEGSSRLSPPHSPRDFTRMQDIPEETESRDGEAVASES
UniProt P84085: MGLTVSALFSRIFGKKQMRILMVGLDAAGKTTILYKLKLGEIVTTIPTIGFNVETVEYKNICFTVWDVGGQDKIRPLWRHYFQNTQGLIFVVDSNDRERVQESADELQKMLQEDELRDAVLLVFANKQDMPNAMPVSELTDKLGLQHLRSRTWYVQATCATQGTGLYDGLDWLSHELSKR
UniProt Q9Y587: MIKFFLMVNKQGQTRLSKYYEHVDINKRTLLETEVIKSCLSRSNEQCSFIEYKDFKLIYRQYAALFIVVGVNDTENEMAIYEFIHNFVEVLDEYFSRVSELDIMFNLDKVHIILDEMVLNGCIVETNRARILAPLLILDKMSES
UniProt P53367: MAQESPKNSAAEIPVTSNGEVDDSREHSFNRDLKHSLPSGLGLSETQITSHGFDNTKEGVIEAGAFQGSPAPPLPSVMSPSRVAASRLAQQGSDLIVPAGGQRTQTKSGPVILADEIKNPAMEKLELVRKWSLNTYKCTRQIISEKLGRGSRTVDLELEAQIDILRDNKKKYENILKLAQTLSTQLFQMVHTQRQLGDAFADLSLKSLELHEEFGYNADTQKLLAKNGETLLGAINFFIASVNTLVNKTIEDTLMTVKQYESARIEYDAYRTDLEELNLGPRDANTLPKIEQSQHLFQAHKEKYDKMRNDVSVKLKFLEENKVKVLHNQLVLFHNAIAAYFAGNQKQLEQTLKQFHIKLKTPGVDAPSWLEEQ
UniProt P48444: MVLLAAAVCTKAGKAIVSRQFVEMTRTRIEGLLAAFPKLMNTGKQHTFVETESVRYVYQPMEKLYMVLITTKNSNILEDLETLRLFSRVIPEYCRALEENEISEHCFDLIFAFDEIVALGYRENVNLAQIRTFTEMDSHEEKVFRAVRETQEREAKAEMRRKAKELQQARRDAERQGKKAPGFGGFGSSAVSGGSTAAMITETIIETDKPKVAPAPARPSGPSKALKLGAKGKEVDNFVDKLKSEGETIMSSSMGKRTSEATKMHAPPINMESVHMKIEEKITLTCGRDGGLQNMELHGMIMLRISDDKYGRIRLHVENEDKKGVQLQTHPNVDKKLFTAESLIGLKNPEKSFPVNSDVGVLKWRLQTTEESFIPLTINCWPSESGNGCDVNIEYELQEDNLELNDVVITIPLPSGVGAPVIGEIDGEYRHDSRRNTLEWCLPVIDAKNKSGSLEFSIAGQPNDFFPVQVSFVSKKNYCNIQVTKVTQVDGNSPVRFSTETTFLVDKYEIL

Key:
Assay in all cases: log2 fold change, soluble protein after heating vs DMSO (PISA); higher = thermal stabilisation; K562 lysate, 10 uM; active = over 0.2 and 3.5 SD of the protein, either way, in both replicates (recomputed)
[1] = compound: C=CC(=O)N1CCC[C@@H](n2nc(-c3ccc(Oc4ccccc4)cc3)c3c(N)ncnc32)C1 [ibrutinib]
Procedure, shortened: (§1)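 Quantification was by TMTpro 16plex LC-MS/MS with equalised channel sums, applied to the supernatant after 21,000xg for 90 min. Samples were crude K562 extract at 1 mg/mL protein in PBS pH 7.4 with 1 mM MgCl2, treated with 10 μM compound for 30 min, heated for 3 min across 48°C-58°C, pooled and brought to 0.5% NP-40 at 4°C. Values are log-two fold changes in thermal stability relative to solvent controls, from duplicates.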

[2] = compound: CC(=O)c1cnc2ccc(-c3cc(Cl)c(O)c(Cl)c3)nc2c1N[C@H]1CC[C@H](CN(C)C)CC1
Procedure, shortened: as §1

[3] = compound: CC(C)(C)Cn1c(N)nc2ccc(-c3[nH]c(C(C)(C)C)nc3-c3ccc(F)cc3)nc21 [ralimetinib]
Procedure, shortened: as §1

[4] = compound: CC(C)(O)CC(=O)NCCn1ccc2ncnc(Nc3ccc(Oc4cccc(C(F)(F)F)c4)c(Cl)c3)c21
Procedure, shortened: as §1

[5] = compound: CC(C)C1=C2N=C(C=C(N2N=C1)NCC3=CC=CC=C3)NCCCCCCN
Procedure, shortened: as §1

[6] = compound: CC1=C(C(CC(=O)N1)C2=CC=C(C=C2)C(F)(F)F)C(=O)NC3=C(C=C4C(=C3)C=NN4)F
Procedure, shortened: as §1

[7] = compound: CC1=C(C2=C(C=C1)C(=O)C3=CC=CC=C3N2CCCN)C
Procedure, shortened: as §1

[8] = compound: CC1=C(C=C(C=C1)NC(=O)C2=CC(=CC=C2)C(C)(C)C#N)NC3=CC4=C(C=C3)N=CN(C4=O)C
Procedure, shortened: as §1

[9] = compound: CC1=C(C=C(C=C1)NC(=O)C2=CC(=CC=C2)N(C)C)NC(=O)C3=CC=C(C=C3)O
Procedure, shortened: as §1

[10] = compound: CC1=CC=C(C=C1)SC2=C3C=C(SC3=CN=C2)C(=O)N
Procedure, shortened: as §1

[11] = compound: CCCS(=O)(=O)Nc1ccc(F)c(C(=O)c2c[nH]c3ncc(-c4ccc(Cl)cc4)cc23)c1F [vemurafenib]
Procedure, shortened: as §1

[12] = compound: CCCS(=O)(=O)Nc1ccc(F)c(C(=O)c2c[nH]c3ncc(Cl)cc23)c1F
Procedure, shortened: as §1

[13] = compound: CCN(CCCOc1ccc2c(Nc3cc(CC(=O)Nc4cccc(F)c4)[nH]n3)ncnc2c1)CCOP(=O)(O)O [barasertib]
Procedure, shortened: as §1

[14] = compound: CC[C@@H]1C(=O)N(C)c2cnc(Nc3ccc(C(=O)NC4CCN(C)CC4)cc3OC)nc2N1C1CCCC1
Procedure, shortened: as §1

[15] = compound: CC[C@@H]1C(=O)N(C)c2cnc(Nc3ccc(C(=O)N[C@H]4CC[C@H](N5CCN(CC6CC6)CC5)CC4)cc3OC)nc2N1C(C)C [volasertib]
Procedure, shortened: as §1

[16] = compound: CCn1c(C(=O)N(C2CC2)C2CC2)cc2c3c(ncn3C)c(Nc3cc(C)n(C)n3)nc21
Procedure, shortened: as §1

[17] = compound: CCn1cc(-c2ccnc3[nH]c(-c4cccc(CN(C)C)c4)cc23)c(-c2ccc(NC(=O)N(C)C)cc2)n1
Procedure, shortened: as §1

[18] = compound: CN1CCC(CNc2ccc3ncc(-c4cccc(OC(F)(F)F)c4)n3n2)CC1
Procedure, shortened: as §1

[19] = compound: CN1CCN(CCOc2cc(OC3CCOCC3)c3c(Nc4c(Cl)ccc5c4OCO5)ncnc3c2)CC1 [saracatinib]
Procedure, shortened: as §1

[20] = compound: CN1CCN(c2nc(C3=C(c4c[nH]c5ccccc45)C(=O)NC3=O)c3ccccc3n2)CC1 [sotrastaurin]
Procedure, shortened: as §1

Measured: log2 fold change

APOBEC3G (UniProt Q9HC16)
inactive: [1] -0.084 | [2] -0.035 | [3] 0.086 | [4] 0.022 | [5] -0.017 | [6] 0.034 | [7] -0.061 | [8] 0.019 | [9] 0.057 | [10] 0.044 | [11] 0.003 | [12] 0.016 | [13] -0.036 | [14] 0.051 | [15] -0.016 | [16] -0.027 | [17] -0.029 | [18] -0.005 | [19] -0.008 | [20] -0.009

APLP2 (UniProt Q06481)
inactive: [1] 0.029 | [2] 0.043 | [3] -0.015 | [4] -0.074 | [5] -0.018 | [6] 0.043 | [7] 0.045 | [8] 0 | [9] -0.041 | [10] -0.002 | [11] 0.047 | [12] -0.023 | [13] -0.046 | [14] 0.064 | [15] -0.002 | [16] -0.042 | [17] 0.008 | [18] 0.056 | [19] 0.007 | [20] 0.01

ARHGAP35 (UniProt Q9NRY4)
inactive: [1] -0.027 | [2] -0.009 | [3] 0 | [4] -0.01 | [5] 0.003 | [6] 0 | [7] -0.006 | [8] -0.009 | [9] 0.051 | [10] 0.026 | [11] 0.029 | [12] -0.011 | [13] 0.008 | [14] 0.019 | [15] -0.053 | [16] -0.012 | [17] -0.046 | [18] -0.023 | [19] 0.007 | [20] 0.003

ARRB2 isoform 3 (UniProt P32121)
inactive: [1] -0.027 | [2] -0.007 | [3] 0 | [4] -0.006 | [5] -0.004 | [6] -0.048 | [7] -0.04 | [8] 0.024 | [9] 0.006 | [10] -0.013 | [11] 0.035 | [12] -0.02 | [13] 0.036 | [14] 0.031 | [15] 0.03 | [16] 0.004 | [17] -0.116 | [18] 0.039 | [19] 0.017 | [20] 0.022

APOBR (UniProt Q0VD83)
inactive: [1] 0.056 | [2] -0.06 | [3] 0.009 | [4] -0.058 | [5] -0.034 | [6] 0.004 | [7] -0.037 | [8] -0.028 | [9] 0 | [10] -0.077 | [11] -0.019 | [12] 0.044 | [13] 0.024 | [14] 0.037 | [15] 0.022 | [16] -0.051 | [17] 0.016 | [18] 0.007 | [19] 0.035 | [20] 0.014

ARHGAP12 (UniProt Q8IWW6)
inactive: [1] 0.021 | [2] -0.05 | [3] -0.14 | [4] -0.18 | [5] -0.009 | [6] 0.174 | [7] -0.031 | [8] 0.061 | [9] -0.039 | [10] -0.058 | [11] 0.111 | [12] 0.049 | [13] 0.018 | [14] 0.212 | [15] -0.019 | [16] -0.172 | [17] -0.147 | [18] 0.119 | [19] 0.049 | [20] -0.013

ARHGEF10 (UniProt O15013)
inactive: [1] 0.194 | [2] -0.084 | [3] 0.104 | [4] 0.1 | [5] 0.26 | [6] 0.144 | [7] -0.042 | [8] -0.011 | [9] 0.029 | [10] 0.005 | [11] -0.001 | [12] -0.058 | [13] -0.118 | [14] 0.089 | [15] 0.136 | [16] -0.221 | [17] -0.266 | [18] 0.123 | [19] 0 | [20] 0.136

ARHGEF1 (UniProt M0QZR4)
inactive: [1] -0.009 | [2] -0.001 | [3] 0.009 | [4] -0.008 | [5] 0.019 | [6] -0.015 | [7] 0.007 | [8] 0.002 | [9] 0.015 | [10] 0.005 | [11] 0.014 | [12] 0.004 | [13] 0.023 | [14] -0.025 | [15] -0.041 | [16] 0.014 | [17] -0.08 | [18] 0.013 | [19] 0.009 | [20] 0.018

ARHGEF2 (UniProt Q92974)
inactive: [1] 0.028 | [2] -0.003 | [3] 0.043 | [4] 0.005 | [5] 0.014 | [6] 0.008 | [7] -0.034 | [8] 0.047 | [9] 0.018 | [10] 0.01 | [11] -0.006 | [12] 0.013 | [13] -0.002 | [14] 0 | [15] -0.026 | [16] -0.021 | [17] -0.02 | [18] -0.003 | [19] 0.009 | [20] 0.027

ARF5 (UniProt P84085)
inactive: [1] 0.031 | [2] 0.022 | [3] 0.014 | [4] 0.055 | [5] -0.005 | [6] 0.013 | [7] -0.001 | [8] 0.005 | [9] -0.008 | [10] 0 | [11] -0.009 | [12] 0.007 | [13] -0.022 | [14] 0.017 | [15] 0.035 | [16] 0.009 | [17] -0.071 | [18] 0.043 | [19] -0.032 | [20] 0.028

AQR (UniProt O60306)
inactive: [1] 0.011 | [2] -0.009 | [3] 0.062 | [4] 0.029 | [5] 0.007 | [6] 0 | [7] -0.003 | [8] -0.027 | [9] 0.042 | [10] -0.006 | [11] 0.034 | [12] 0.027 | [13] 0.012 | [14] -0.063 | [15] -0.083 | [16] 0.011 | [17] -0.062 | [18] 0.01 | [19] -0.049 | [20] 0.033

AP4S1 (UniProt Q9Y587)
inactive: [1] 0.09 | [2] 0.037 | [3] -0.046 | [4] -0.041 | [5] 0.008 | [6] -0.019 | [7] 0.131 | [8] -0.055 | [9] -0.017 | [10] 0.012 | [11] 0.02 | [12] -0.008 | [13] -0.051 | [14] -0.183 | [15] -0.032 | [16] 0.087 | [17] -0.063 | [18] -0.019 | [19] 0.06 | [20] 0.044

ARFIP1 (UniProt P53367)
inactive: [1] 0.005 | [2] -0.029 | [3] 0.005 | [4] -0.023 | [5] -0.001 | [6] -0.016 | [7] 0.024 | [8] -0.009 | [9] 0.137 | [10] -0.024 | [11] 0.208 | [12] -0.003 | [13] 0.239 | [14] -0.002 | [15] -0.032 | [16] -0.022 | [17] 1.12 | [18] -0.018 | [19] -0.02 | [20] 0.011

APOL2 (UniProt J3KQL8)
inactive: [1] 0.01 | [2] -0.004 | [3] 0.117 | [4] 0.027 | [5] -0.055 | [6] 0.1 | [7] -0.002 | [8] -0.043 | [9] -0.005 | [10] -0.047 | [11] 0.066 | [12] -0.028 | [13] 0.097 | [14] -0.289 | [15] -0.141 | [16] 0.037 | [17] 0.087 | [18] -0.045 | [19] -0.006 | [20] 0.003

ARCN1 (UniProt P48444)
inactive: [1] -0.013 | [2] -0.009 | [3] -0.017 | [4] 0.005 | [5] -0.013 | [6] -0.042 | [7] -0.001 | [8] -0.003 | [9] -0.012 | [10] 0.016 | [11] -0.021 | [12] -0.006 | [13] -0.03 | [14] -0.017 | [15] -0.009 | [16] -0.005 | [17] -0.002 | [18] 0.001 | [19] -0.001 | [20] -0.02

ARID3A (UniProt Q99856)
inactive: [1] 0.023 | [2] 0.009 | [3] 0.037 | [4] -0.018 | [5] -0.01 | [6] -0.024 | [7] -0.005 | [8] -0.083 | [9] 0.04 | [10] -0.027 | [11] -0.011 | [12] -0.012 | [13] 0.051 | [14] 0.014 | [15] -0.009 | [16] 0.001 | [17] 0.025 | [18] -0.051 | [19] -0.011 | [20] 0.017
